Results on two molecules are retold here after patent US7094524B2, “Thermally development imaging materials having backside stabilizers” (Eastman Kodak Company, priority 2003, dated 2006).

This data set is described as follows: Shelf aging of photothermographic material with amine in backside coating, Example 14 (TABLE III). The following applies: Level 0.5; amine on backside of the photothermographic material; aged 70° F. (21° C.) at 80% RH, 3 months.

With `C1CCC2=NCCCN2CC1` [AB-6, 1,8-diazabicyclo[5.4.0]undec-7-ene], the “Δ Dmin” value was −80%. The figure for `N=C(Nc1ccccc1)Nc1ccccc1` [AB-8] is −90%.
